Measurements from patent US8420371.
No constants are given. Whether binding was seen depends on the method and setting. Some entries that bind do so weakly or less than the wild type. Where a sequence is shown, tags or fusion partners need not be part of it.

Molecular target: human GAD65, residues 84-585, with a C-terminal hexahistidine tag (GAD65Δ1-83) (human) (UniProt Q05329)
Experiment: crystal structure, 2.3 Å

B1: human GAD65, residues 84-585, with a C-terminal hexahistidine tag (GAD65Δ1-83) (enzyme)
chain: KVDVNYAFLHATDLLPACDGERPTLAFLQDVMNILLQYVVKSFDRSTKVIDFHYPNELLQEYNWELADQPQNLEEILMHCQTTLKYAIKTGHPRYFNQLSTGLDMVGLAADWLTSTANTNMFTYEIAPVFVLLEYVTLKKMREIIGWPGGSGDGIFSPGGAISNMYAMMIARFKMFPEVKEKGMAALPFLIAFTSEHSHFSLKKGAAALGIGTDSVILIKCDERGKMIPSDLERRILEAKQKGPVPFLVSATAGTTVYGAFDPLLAVADICKKYKIWMHVDAAWGGGLLMSRKHKWKLSGVERANSVTWNPHKMMGVPLQCSALLVREEGLMQNCNQMHASYLFQQDKHYDLSYDTGDKALQCGRHVDVFKLWLMWRAKGTTGFEAHVDKCLELAEYLYNIIKNREGYEMVFDGKPQHTNVCFWYIPPSLRTLEDNEERMSRLSKVAPVIKARMMEYGTTMVSYQPLGDKVNFFRMVISNPAATHQDIDFLIEEIERLGQDLHHHHHH
modifications: PLP bound to the active site lysine by a Schiff base linkage
binding: binds
